Source: the supplement of paper PMC8728848
The list shows a part of the results.

Legend:
Assay in all cases: glycan array binding signal (z-score within array); higher = stronger binding
Details in all cases: glycan notation: IUPAC condensed, linker removed
Gal(b1-4)Glc = molecular target: Gal(b1-4)Glc
Summary of the method: (§1)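 Glycan array binding is given as a within-array Z-score, which can be read as non-binding when negative. The arrays, 3228 of them, came from the Consortium for Functional Glycomics database and were retained only where the protein sequence was available. Z-scores were averaged across arrays of the same protein sequence at different concentrations or buffers and across linkers.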

Gal(b1-4)Glc6S = molecular target: Gal(b1-4)Glc6S
Summary of the method: as §1

Gal(b1-4)GlcNAc = molecular target: Gal(b1-4)GlcNAc
Summary of the method: as §1

[1] = molecular target: Gal(b1-4)GlcNAc(a1-6)Gal(b1-4)GlcNAc
Summary of the method: as §1

Gal(b1-4)GlcNAc(b1-2)Man = molecular target: Gal(b1-4)GlcNAc(b1-2)Man
Summary of the method: as §1

[2] = molecular target: Gal(b1-4)GlcNAc(b1-2)Man(a1-3)Man(b1-4)GlcNAc(b1-4)GlcNAc
Summary of the method: as §1

[3] = molecular target: Gal(b1-4)GlcNAc(b1-2)Man(a1-3)[Gal(b1-4)GlcNAc(b1-2)Man(a1-6)]Man(b1-4)GlcNAc(b1-4)GlcNAc
Summary of the method: as §1

[4] = molecular target: Gal(b1-4)GlcNAc(b1-2)Man(a1-3)[Gal(b1-4)GlcNAc(b1-2)Man(a1-6)]Man(b1-4)GlcNAc(b1-4)[Fuc(a1-6)]GlcNAc
Summary of the method: as §1

[5] = molecular target: Gal(b1-4)GlcNAc(b1-2)Man(a1-3)[Gal(b1-4)GlcNAc(b1-2)Man(a1-6)][Gal(b1-4)GlcNAc(b1-4)]Man(b1-4)GlcNAc(b1-4)[Fuc(a1-6)]GlcNAc
Summary of the method: as §1

[6] = molecular target: Gal(b1-4)GlcNAc(b1-2)Man(a1-3)[Gal(b1-4)GlcNAc(b1-2)Man(a1-6)][GlcNAc(b1-4)]Man(b1-4)GlcNAc(b1-4)[Fuc(a1-6)]GlcNAc
Summary of the method: as §1

[7] = molecular target: Gal(b1-4)GlcNAc(b1-2)Man(a1-3)[GlcNAc(b1-2)Man(a1-6)]Man(b1-4)GlcNAc(b1-4)GlcNAc
Summary of the method: as §1

[8] = molecular target: Gal(b1-4)GlcNAc(b1-2)Man(a1-3)[GlcNAc(b1-4)][Gal(b1-4)GlcNAc(b1-2)Man(a1-6)]Man(b1-4)GlcNAc(b1-4)GlcNAc
Summary of the method: as §1

[9] = molecular target: Gal(b1-4)GlcNAc(b1-2)Man(a1-3)[Man(a1-6)]Man(b1-4)GlcNAc(b1-4)GlcNAc
Summary of the method: as §1

[10] = molecular target: Gal(b1-4)GlcNAc(b1-2)Man(a1-6)Man(b1-4)GlcNAc(b1-4)GlcNAc
Summary of the method: as §1

[11] = molecular target: Gal(b1-4)GlcNAc(b1-2)Man(a1-6)[GlcNAc(b1-2)Man(a1-3)]Man(b1-4)GlcNAc(b1-4)GlcNAc
Summary of the method: as §1

[12] = molecular target: Gal(b1-4)GlcNAc(b1-2)Man(a1-6)[Man(a1-3)]Man(b1-4)GlcNAc(b1-4)GlcNAc
Summary of the method: as §1

[13] = molecular target: Gal(b1-4)GlcNAc(b1-2)[Gal(b1-4)GlcNAc(b1-4)]Man(a1-3)[Gal(b1-4)GlcNAc(b1-2)Man(a1-6)]Man(b1-4)GlcNAc(b1-4)GlcNAc
Summary of the method: as §1

[14] = molecular target: Gal(b1-4)GlcNAc(b1-2)[Gal(b1-4)GlcNAc(b1-4)]Man(a1-3)[Gal(b1-4)GlcNAc(b1-2)[Gal(b1-4)GlcNAc(b1-6)]Man(a1-6)]Man(b1-4)GlcNAc(b1-4)GlcNAc
Summary of the method: as §1

[15] = molecular target: Gal(b1-4)GlcNAc(b1-2)[Gal(b1-4)GlcNAc(b1-4)]Man(a1-3)[GlcNAc(b1-4)][Gal(b1-4)GlcNAc(b1-2)Man(a1-6)]Man(b1-4)GlcNAc(b1-4)GlcNAc
Summary of the method: as §1

[16] = molecular target: Gal(b1-4)GlcNAc(b1-2)[Gal(b1-4)GlcNAc(b1-4)]Man(a1-3)[GlcNAc(b1-4)][Gal(b1-4)GlcNAc(b1-2)[Gal(b1-4)GlcNAc(b1-6)]Man(a1-6)]Man(b1-4)GlcNAc(b1-4)GlcNAc
Summary of the method: as §1

[17] = molecular target: Gal(b1-4)GlcNAc(b1-2)[Gal(b1-4)GlcNAc(b1-6)]Man(a1-6)[Gal(b1-4)GlcNAc(b1-2)Man(a1-3)]Man(b1-4)GlcNAc(b1-4)GlcNAc
Summary of the method: as §1

[18] = molecular target: Gal(b1-4)GlcNAc(b1-2)[Gal(b1-4)GlcNAc(b1-6)]Man(a1-6)[Gal(b1-4)GlcNAc(b1-2)Man(a1-3)]Man(b1-4)GlcNAc(b1-4)[Fuc(a1-6)]GlcNAc
Summary of the method: as §1

[19] = molecular target: Gal(b1-4)GlcNAc(b1-2)[Gal(b1-4)GlcNAc(b1-6)]Man(a1-6)[GlcNAc(b1-4)][Gal(b1-4)GlcNAc(b1-2)Man(a1-3)]Man(b1-4)GlcNAc(b1-4)GlcNAc
Summary of the method: as §1

[20] = molecular target: Gal(b1-4)GlcNAc(b1-2)[Gal(b1-4)GlcNAc(b1-6)]Man(a1-6)[GlcNAc(b1-4)][Gal(b1-4)GlcNAc(b1-2)[Gal(b1-4)GlcNAc(b1-4)]Man(a1-3)]Man(b1-4)GlcNAc(b1-4)[Fuc(a1-6)]GlcNAc
Summary of the method: as §1

[21] = molecular target: Gal(b1-4)GlcNAc(b1-3)Gal(b1-3)GalNAc
Summary of the method: as §1

[22] = molecular target: Gal(b1-4)GlcNAc(b1-3)Gal(b1-3)GlcNAc
Summary of the method: as §1

[23] = molecular target: Gal(b1-4)GlcNAc(b1-3)Gal(b1-4)Glc
Summary of the method: as §1

[24] = molecular target: Gal(b1-4)GlcNAc(b1-3)Gal(b1-4)GlcNAc
Summary of the method: as §1

[25] = molecular target: Gal(b1-4)GlcNAc(b1-3)Gal(b1-4)GlcNAc(b1-2)Man(a1-3)[Gal(b1-4)GlcNAc(b1-3)Gal(b1-4)GlcNAc(b1-2)Man(a1-6)]Man(b1-4)GlcNAc(b1-4)GlcNAc
Summary of the method: as §1

[26] = molecular target: Gal(b1-4)GlcNAc(b1-3)Gal(b1-4)GlcNAc(b1-2)Man(a1-3)[Gal(b1-4)GlcNAc(b1-3)Gal(b1-4)GlcNAc(b1-2)Man(a1-6)]Man(b1-4)GlcNAc(b1-4)[Fuc(a1-6)]GlcNAc
Summary of the method: as §1

[27] = molecular target: Gal(b1-4)GlcNAc(b1-3)Gal(b1-4)GlcNAc(b1-2)[Gal(b1-4)GlcNAc(b1-3)Gal(b1-4)GlcNAc(b1-6)]Man(a1-6)[Gal(b1-4)GlcNAc(b1-3)Gal(b1-4)GlcNAc(b1-2)Man(a1-3)]Man(b1-4)GlcNAc(b1-4)GlcNAc
Summary of the method: as §1

[28] = molecular target: Gal(b1-4)GlcNAc(b1-3)Gal(b1-4)GlcNAc(b1-2)[Gal(b1-4)GlcNAc(b1-3)Gal(b1-4)GlcNAc(b1-6)]Man(a1-6)[Gal(b1-4)GlcNAc(b1-3)Gal(b1-4)GlcNAc(b1-2)Man(a1-3)]Man(b1-4)GlcNAc(b1-4)[Fuc(a1-6)]GlcNAc
Summary of the method: as §1

[29] = molecular target: Gal(b1-4)GlcNAc(b1-3)Gal(b1-4)GlcNAc(b1-3)Gal(b1-4)GlcNAc
Summary of the method: as §1

[30] = molecular target: Gal(b1-4)GlcNAc(b1-3)Gal(b1-4)GlcNAc(b1-3)Gal(b1-4)GlcNAc(b1-2)Man(a1-3)[Gal(b1-4)GlcNAc(b1-3)Gal(b1-4)GlcNAc(b1-3)Gal(b1-4)GlcNAc(b1-2)Man(a1-6)]Man(b1-4)GlcNAc(b1-4)GlcNAc
Summary of the method: as §1

[31] = molecular target: Gal(b1-4)GlcNAc(b1-3)Gal(b1-4)GlcNAc(b1-3)Gal(b1-4)GlcNAc(b1-2)Man(a1-3)[Gal(b1-4)GlcNAc(b1-3)Gal(b1-4)GlcNAc(b1-3)Gal(b1-4)GlcNAc(b1-2)Man(a1-6)]Man(b1-4)GlcNAc(b1-4)[Fuc(a1-6)]GlcNAc
Summary of the method: as §1

[32] = molecular target: Gal(b1-4)GlcNAc(b1-3)Gal(b1-4)GlcNAc(b1-3)Gal(b1-4)GlcNAc(b1-2)[Gal(b1-4)GlcNAc(b1-3)Gal(b1-4)GlcNAc(b1-3)Gal(b1-4)GlcNAc(b1-6)]Man(a1-6)[Gal(b1-4)GlcNAc(b1-3)Gal(b1-4)GlcNAc(b1-3)Gal(b1-4)GlcNAc(b1-2)Man(a1-3)]Man(b1-4)GlcNAc(b1-4)[Fuc(a1-6)]GlcNAc
Summary of the method: as §1

[33] = molecular target: Gal(b1-4)GlcNAc(b1-3)Gal(b1-4)GlcNAc(b1-3)Gal(b1-4)GlcNAc(b1-3)Gal(b1-4)GlcNAc(b1-2)Man(a1-3)[Gal(b1-4)GlcNAc(b1-3)Gal(b1-4)GlcNAc(b1-3)Gal(b1-4)GlcNAc(b1-3)Gal(b1-4)GlcNAc(b1-2)Man(a1-6)]Man(b1-4)GlcNAc(b1-4)GlcNAc
Summary of the method: as §1

B1: GS13599A-bth-520-23-520 (Bacteroides thetaiotaomicron) (protein)
chain: SEDTMDRINKDHDHTTSVASRFILADVITSTAFSNASGDINTYASSYIEYEVGVDNQLYYAEVRENEPSSSSTFNNSWNGIYSSLKNARIIIDQCGEGGRDHGNDVTRGMAEVMAAYNCALIADFFGDAPCSQAALVDEKGSPVYMTPKMDTQQEIYTQIISYLDDAIANLQKEDLADVTEQDFLYAGDADKWLKFAYGLKARYTMRLINRSSNKSADYEKVLDYVSKSFTSADDQAAFDIYDSNNINPFYGFYNSRAGFGASTSLGTKLLAYNDPRANRAFFTPIVDKKRSQVAANDPSLVPAPNGSPDQSTSKYGISAFVYAKTAPTLLMSYHELMFLKAEALCRLNRDAEDALKEAVVAGLLNAENSISIAIKELGSGLNTNSSEVITETSAGKYFDDVVKAKYAANPLQETMIQKYLAMWGASGEATETYNDFRRMKGLNENFITLTNPNNSSKFPLRYPYGNSDTAANPEVKAAYGNGDYVYSEPVWWAGGSR
Gal(b1-4)Glc
  glycan array binding signal (z-score): -0.435
Gal(b1-4)Glc6S
  glycan array binding signal (z-score): 0.472
Gal(b1-4)GlcNAc
  glycan array binding signal (z-score): -0.072
[1]
  glycan array binding signal (z-score): -1.2
Gal(b1-4)GlcNAc(b1-2)Man
  glycan array binding signal (z-score): 2.44
[2]
  glycan array binding signal (z-score): 0.838
[3]
  glycan array binding signal (z-score): -0.035
[4]
  glycan array binding signal (z-score): 0.794
[5]
  glycan array binding signal (z-score): 1.17
[6]
  glycan array binding signal (z-score): -0.861
[7]
  glycan array binding signal (z-score): 0.298
[8]
  glycan array binding signal (z-score): -0.86
[9]
  glycan array binding signal (z-score): 1.74
[10]
  glycan array binding signal (z-score): -0.356
[11]
  glycan array binding signal (z-score): -0.894
[12]
  glycan array binding signal (z-score): -0.256
[13]
  glycan array binding signal (z-score): -0.172
[14]
  glycan array binding signal (z-score): -0.453
[15]
  glycan array binding signal (z-score): -0.486
[16]
  glycan array binding signal (z-score): -0.119
[17]
  glycan array binding signal (z-score): 1.27
[18]
  glycan array binding signal (z-score): 0.42
[19]
  glycan array binding signal (z-score): -0.696
[20]
  glycan array binding signal (z-score): -0.585
[21]
  glycan array binding signal (z-score): -0.443
[22]
  glycan array binding signal (z-score): 0.512
[23]
  glycan array binding signal (z-score): -0.38
[24]
  glycan array binding signal (z-score): -1.28
[25]
  glycan array binding signal (z-score): 3.32
[26]
  glycan array binding signal (z-score): 1.38
[27]
  glycan array binding signal (z-score): 1.94
[28]
  glycan array binding signal (z-score): 2.04
[29]
  glycan array binding signal (z-score): -0.025
[30]
  glycan array binding signal (z-score): 2.11
[31]
  glycan array binding signal (z-score): 2.27
[32]
  glycan array binding signal (z-score): 1.12
[33]
  glycan array binding signal (z-score): -0.028
